From PubChem BioAssay AID720591 (Broad Institute, 2013)
The campaign covered roughly 1,200 compounds. About 60 (5%) were called active. Another 1% or so got no clear call; they are omitted.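 The calls were made as follows: active = Decreasing signal and fitted IC50 at most twice the top valid tested dose; inconclusive = Bad fit or a level curve showing 30 to 70% inhibition; inactive = the rest.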 Some of the results follow. Potency and affinity values are given separately.

Chains of the proteins cited; added tags and fusions are not shown. Lines headed by an entry give the natural chain unless they say otherwise; changes in a name come on top.
UniProt Q9NXA8: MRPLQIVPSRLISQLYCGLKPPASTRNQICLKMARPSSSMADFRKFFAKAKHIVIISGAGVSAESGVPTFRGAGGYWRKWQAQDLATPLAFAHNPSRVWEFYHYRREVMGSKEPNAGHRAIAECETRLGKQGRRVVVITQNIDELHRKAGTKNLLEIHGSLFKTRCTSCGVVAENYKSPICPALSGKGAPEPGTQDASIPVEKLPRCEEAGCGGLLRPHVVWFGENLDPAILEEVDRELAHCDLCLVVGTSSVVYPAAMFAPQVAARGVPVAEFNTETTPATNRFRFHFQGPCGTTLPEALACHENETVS

target: NAD-dependent protein deacylase sirtuin-5, mitochondrial (Homo sapiens) (UniProt Q9NXA8); assay: sirtuin-5 deacylation blockers, concentration series – biochemical, fluorescence imaging, cherry-pick, set 5, dose response (AID 720591); details: Purified SirT5, succinyl-peptide AMC, trypsin-coupled fluorescence; at 15 µM (top of the series) unless noted;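 also: 0% = median of neutral control wells and -100% = median of positive control wells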

Activity change, negative = inhibition, inactive:
C=C(C)COc1ccc(-c2ncncc2-c2ccc(OC)cc2)c(O)c1 4.58%
Cc1ccc(C(=O)NC2CCCc3c2cnn3-c2ccc(F)cc2F)cn1 (stereo unspecified) 36.6%
COc1ccc(-c2noc(Cn3cc(S(=O)(=O)N4CCCC4)ccc3=O)n2)cc1 -33.5%
CC(C)N(C(=O)[C@H]1C[C@H](CC(=O)NC(C)(C)C)C(=O)N2CCc3c([nH]c4cc(-c5ccco5)ccc34)[C@]12C)C(C)C 9.87%
CC(C)NC(=O)C(c1ccc(F)cc1)N(Cc1ccco1)C(=O)CCC(=O)Nc1ccccn1 (stereo unspecified) 8.91%
O=C(COC(=O)c1cc(=O)[nH]c2ccccc12)NC1CCCC1 19.9%
Cc1oc2ccc(NS(=O)(=O)c3ccccc3)cc2c1C(=O)Nc1ccccc1 1.52%
CC1CCCN(CCOCCSc2ccccc2)C1 (stereo unspecified) 0.132%
CCN(C[C@H]1N[C@@](C)(C(=O)OC)[C@H]2C(=O)N(C)C(=O)[C@@H]12)C(=O)c1ccc(F)cc1 -17.1%
Cc1cc(C)cc(NC(=O)CSc2ccc(-c3cccs3)nn2)c1 4.74%
Cc1cc(CNC(=O)CC2C(=O)NCCN2Cc2ccccc2C(F)(F)F)on1 (stereo unspecified) 4.9%
COc1ccccc1CNS(=O)(=O)c1cccs1 2.11%
O=C(NCCc1ccccc1)C1c2ccccc2C(=O)N1Cc1cccs1 (stereo unspecified) 10.5% [at 7.5 µM]
Cc1ccc(S(=O)(=O)N2CCCCC2)cc1NC(=O)COC(=O)CN1C(=O)NC2(CC(C)CC(C)(C)C2)C1=O (stereo unspecified) 0.355%
COc1cc(Cl)c(CN2CCCC(CO)(Cc3ccccc3F)C2)cc1OC (stereo unspecified) 8.36%
Cn1ncc2c(Nc3cc(Cl)cc(Cl)c3)ncnc21 -24.3%
O=C(c1ccco1)N1CCCN(Cc2nc(-c3cccs3)no2)CC1 0.286%
Cc1ccc(Cl)cc1N(C(=O)c1csnn1)C(C(=O)NC1CCCC1)c1ccco1 (stereo unspecified) 16.8%
Cc1ccc(S(=O)(=O)c2ccc(-n3nc(C)cc3N)cc2)cc1 2.99%
COc1cc(C)c(CN2CCN(C(=O)CCC(=O)c3ccc(C)s3)CC2)cc1OC 16.3%
O=C(O)c1cc(N2C(=O)C3CCCCC3C2=O)ccc1NCc1cccnc1 (stereo unspecified) 17.6%
CCCNC(=O)C1(C)CCCN(C(=O)C2(c3ccc(Cl)cc3)CCCC2)C1 (stereo unspecified) 14.6%
COCCNC(=O)c1onc(CSc2cccc(OC)c2)c1C(=O)NCCOC -16.5%
CC1(C)N=C(N)NC(Nc2ccc(Cl)cc2)=N1 6.94%
Cc1nc(-c2ccccc2)sc1C(=O)NS(=O)(=O)c1ccc(CN2CCN(c3ccccc3)CC2)cc1 -16.5%
CC(=O)c1ccc(OCCCC(=O)Nc2ccc3c(c2)OCCO3)cc1 -29.6%
O=C(NC1CCCC1)C(c1ccco1)N(C(=O)c1csnn1)c1ccccc1 (stereo unspecified) -11.2%
Cc1cccc(Cl)c1NC(=O)NCCCN1CCCCC1C (stereo unspecified) -21.1%
C[C@H]1CN([C@@H](C)CO)C(=O)c2cc(NC(=O)C3CCCCC3)ccc2O[C@H]1CN(C)Cc1ccc(-c2ccccc2)cc1 -24.1%
O=C1CCC(C(=O)N2CCCCCC2)CN1Cc1cccc(C(F)(F)F)c1 (stereo unspecified) -29.3%
O=C(Nc1ccccc1)C1CCN(C(=O)c2ccco2)CC1 -31.6%
CCn1cc(C(=O)OC)c(=O)c2cc(S(=O)(=O)N(C)C3CCCCC3)ccc21 -15.6%
FC(F)(F)c1ccc(Oc2ccc3ccccc3c2Br)nc1 24.9%
C#CC1(NC(=O)N(C)C)CCCCC1 -17.5%
Cc1ccc(C(=O)NCC(=O)NCc2cc(=O)n(C)c(=O)n2C)cc1 -29.1%
O=C1CN(C(=O)COc2cccc(F)c2)c2ccccc2N1 3.25%
C[C@@H]1CN([C@@H](C)CO)C(=O)CCCn2nncc2CO[C@H]1CN(C)C(=O)C1CCCCC1 -4.24%
Cc1sc2nc(N3CCOCC3)[nH]c(=O)c2c1-c1ccccc1 -15.5%
CCN1CCN(C(=O)CN(CC)S(=O)(=O)c2ccc3ccccc3c2)CC1 -19%
Clc1ccc(SCc2cn3ccccc3n2)cc1 -21.3%
Cc1ccc(CNC(=O)CNC(=O)[C@@H]2Cc3ccccc3CN2)cc1 9.5%
Cc1ccc(-n2nc(C)c3c(C)cc(=O)[nH]c32)cc1 23%
COc1ccc(S(=O)(=O)N2CCCCC2)cc1NC(=O)CNc1ccccc1N1CCCC1=O -11.2%
CN(C)CCOC(=O)NCC12CC3CC(CC(C3)C1)C2 -14.8%
Cc1cc(NC(=O)CCC(=O)N(Cc2ccc(F)cc2)C(C(=O)NC2CCCC2)c2ccco2)no1 (stereo unspecified) 12.4%
COc1ccc(CCN(Cc2cc3ccc(C)cc3n3nnnc23)C(C)=O)cc1OC 11.4%
O=C(CN1C(=O)NC2(CCCC2)C1=O)Nc1ccc(S(=O)(=O)N2CCOCC2)cc1 10.3%
Cc1ccc(S(=O)(=O)N2C[C@H]3n4c(=O)ccc(=O)n4C[C@H](OC(=O)NCc4ccco4)[C@@]3(O)C2)cc1 -5.38%
CCCn1cc(S(=O)(=O)c2ccc(C)cc2)c(=O)c2cc(OC)c(OC)cc21 0.014%
CC1=C(C(=O)N2CCOCC2)CC(CC(=O)NCC2CCCCC2)C(=O)N1CCC1=CCCCC1 (stereo unspecified) 31.4%
O=C(c1ccccc1)c1coc2ccc(O)c(Cl)c12 -19.4%
Cc1ccc(C(=O)NCCC(=O)N2CCC3(CC2)NCCc2[nH]cnc23)cc1C -28.5%
CC(C)(CO)CNC(=O)CCc1nnc(Cc2ccc(-c3ccccc3)cc2)o1 -22.7%
COc1ccc(CNC(=O)C(c2ccco2)N(C(=O)Cc2cccs2)c2cccnc2)cc1 (stereo unspecified) 1.51%
CCCCCNC(=O)C(c1cc2ccccc2o1)n1c(=O)c(-c2ccccc2)nc2ccccc21 (stereo unspecified) -20.3%
COc1ccccc1Cc1c(-c2cccc(Br)c2)nc2c(C)cc(Br)cn12 19.3%
C[C@H](CO)N1C[C@H](C)[C@@H](CN(C)CC2CCCCC2)Oc2c(NC(=O)Cc3ccccc3)cccc2C1=O 9.88%
Cc1c(C(=O)N2CCOCC2)c(S(=O)(=O)Nc2ccccc2)c(C)n1C -2.37%
Cc1cccc(-c2noc(CNC(=O)c3ccco3)n2)c1 8.66%
CCOc1ccccc1NC(=O)COC(=O)C1CC(=O)N(c2c(C)cccc2C)C1 (stereo unspecified) 21.8%
COc1ccc(OC)c2c1cc(C(=O)N[C@H](C(=O)N1CCC(C(=O)O)CC1)C(C)C)n2C 4.85%
CNC(=O)NC(=O)CSc1nnc(-c2ccco2)n1-c1ccccc1 -7.81%
Cc1c(C(=O)c2ccccc2)c2ccccn2c1CCC#N 16.4%
COC(=O)[C@]1(C)N[C@H](c2ccc(SC3CCCCC3)c(OC)c2)[C@@H]2C(=O)N(C)C(=O)[C@@H]21 -9.95%
COc1cc(C(=O)Nc2ccc(C)cc2C(NCC(=O)NN)c2ccccc2)cc(OC)c1OC (stereo unspecified) -16.5%
O=C(COC(=O)CC1CC2CCC1C2)NCc1ccccc1 (stereo unspecified) 15.9%
O=C(Nc1ccccc1C(=O)O)c1cc(S(=O)(=O)Nc2ccccc2)ccc1Cl 15.5%
Cc1ccccc1N(C(=O)CS(=O)CC(=O)Nc1ccc(F)cc1)C(C)C(=O)NC(C)(C)C (stereo unspecified) -31.5%
Cc1nn(CC(=O)N(C)C)c(=O)c2ccccc12 -8.69%
CN1CCN(C(=O)C2CCN(c3ncc(C(F)(F)F)cc3Cl)CC2)CC1 2.29%
CC1(C(=O)NS(=O)(=O)c2ccccc2Cl)CCN1C(=O)Cc1cccc2ccccc12 (stereo unspecified) 31.4%
O=C(CCC1CCCN(Cc2cccc3c2OCO3)C1)NCc1ccc(F)c(F)c1 (stereo unspecified) -23.1%
COc1cc(CCC(=O)N2CCN(c3ccccc3)CC2)cc(OC)c1OC 7.87%
COc1cc(C(=O)NCCCc2nc3ccccc3n2Cc2cc(C)ccc2C)cc(OC)c1OC 9.81%
CC1CC(C)CN(S(=O)(=O)c2cc3c4c(c2)C(C)C(=O)N4CCC3)C1 (stereo unspecified) -16.5%
COC(=O)c1ccc(-c2noc(CN3CCCC(CNC(C)=O)C3)n2)cc1 (stereo unspecified) 36.6%
Cc1cc(F)ccc1NC(=O)C1CSC2(C)CCC(=O)N12 (stereo unspecified) 16.9%
Cc1cc(N)n(-c2ccc(S(=O)(=O)c3ccc(C(C)C)cc3)cc2)n1 -33.2%
C[C@]1(C(=O)NCc2cc(F)cc(C(F)(F)F)c2)C=C[C@@H](Cc2ccccc2)N1C(=O)c1ccccc1 18.6%
Cc1cccc(N2CCN(C(=O)COc3ccc4c(C)cc(=O)oc4c3C)CC2)c1C -12.8%
CCCc1c(C)nc2ccccc2c1SCCC#N -30.4%
C[C@@H]1CN([C@H](C)CO)S(=O)(=O)c2ccc(C#Cc3ccccc3F)cc2O[C@@H]1CN(C)C(=O)Cc1ccccc1 -7.51%
CC1CCN(S(=O)(=O)c2cc3c4c(c2)C(C)C(=O)N4CCC3)CC1 (stereo unspecified) -16.9%
COc1ccc(CC(=O)NCC2CCCN(Cc3ccc(OC(F)(F)F)cc3)C2)cc1 (stereo unspecified) -23.7%
O=C(NCc1ccc(F)cc1)c1cccnc1C(=O)O 8.78%
Cc1ccccc1OCC(=O)NCCNC(=O)c1ccccn1 -7.2%

Arranged by heavy-atom count (smallest number first): 4 of the compounds above.
Activity change, negative = inhibition, inactive:
Cc1ccc(S(=O)(=O)c2ccc(-n3nc(C)cc3N)cc2)cc1 2.99%
Cc1cc(N)n(-c2ccc(S(=O)(=O)c3ccc(C(C)C)cc3)cc2)n1 -33.2%
CCCn1cc(S(=O)(=O)c2ccc(C)cc2)c(=O)c2cc(OC)c(OC)cc21 0.014%
Cc1ccc(C(=O)NCCC(=O)N2CCC3(CC2)NCCc2[nH]cnc23)cc1C -28.5%
